Experimental data published in PMC8041276 (ACS Chemical Neuroscience, 2021).

System: HepG2 cells
Assay: MTT assay, hepatotoxicity in HepG2 cells
Type: cell-based
Settings: Homo sapiens; HepG2, 24 h; printed in Figure 5A; read-out: IC50, cellular viability (MTT)
Procedure: Human hepatocellular carcinoma cells (HepG2) were cultured using standard procedures (protocol from ATCC). Cells were cultured in Eagle’s minimum essential medium (EMEM) in flasks with an area of 25 cm^2 (Falcon), supplemented with 10% of fetal bovine serum (FBS, Life Technologies) with the addition of 100 IU/mL penicillin (Sigma-Aldrich) and 100 μg/mL streptomycin (Sigma-Aldrich) and incubated at 37 °C in a humidified atmosphere with 5% CO2.
The MTT assay was used to determine the viability of HepG2 cells incubated in the presence of compound 27 and DOX. Cells were seeded at a density of 2 × 10^4 in 96-well plates. […] Following cell exposure to each compound 10 μL of MTT reagent (Sigma-Aldrich) was added to each well. After 4 h of incubation (37 °C, 5% CO2) the culture medium was aspirated and formazan crystals were dissolved in 100 μL of DMSO. Then, optical density (OD) at 570 nm was determined on a plate reader (Spectra Max iD3, Molecular Devices). Each individual experiment was repeated at least three times.

**Q.** COc1cccc2c1C(=O)c1c(O)c3c(c(O)c1C2=O)C[C@@](O)(C(=O)CO)C[C@@H]3O[C@H]1C[C@H](N)[C@H](O)[C@H](C)O1 [DOX, Doxorubicin, reference compound] was tested. Which IC50 did it give?
**A.** 750 nM
